Assay [1] addresses T1, neuropilin 1 receptor (UniProt O14786 273-586, limits assumed).
T1 construct: The construct is not defined; also called NRP1; NRP 1
The assay is described as follows: SPR (Biacore 2000), neuropilin 1 fixed on CM5 chip.

The chains behind the UniProt entries cited, without tags or fusion partners. Residues count along the entry.
UniProt O14786, residues 273-586: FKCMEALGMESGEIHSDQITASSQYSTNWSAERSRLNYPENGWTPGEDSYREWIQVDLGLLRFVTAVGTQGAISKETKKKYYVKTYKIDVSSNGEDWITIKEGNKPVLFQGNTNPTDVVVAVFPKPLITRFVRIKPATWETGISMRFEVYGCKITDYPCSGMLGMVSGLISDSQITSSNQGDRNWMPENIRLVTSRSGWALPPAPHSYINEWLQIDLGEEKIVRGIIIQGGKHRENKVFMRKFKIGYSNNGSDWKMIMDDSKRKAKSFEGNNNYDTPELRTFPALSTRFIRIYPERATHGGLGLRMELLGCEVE

Assay [2] has as its target T1, neuropilin 1 receptor. Briefly: SPR (Biacore 2000), neuropilin 1 domain fixed on chip.

These are yes or no findings as the source states them, for the method shown. Some entries that bind do so weakly or less than the wild type. Where a sequence is shown, tags or fusion partners need not be part of it.

Data on one molecule can be found in US20180133288A1 (ILDONG PHARM, published 2018).

B1: Fc-TPP#5 (TPP#5-fused Fc) (Fc fusion, not shown: a dimerising Fc or GST; small tags and cut ends)
chain: HTPGNSKPTRTPRR
For the molecule B1, the binding result with neuropilin 1 receptor [1] and in the assay with neuropilin 1 receptor [2] was “binds” each time.
